According to paper PMC7819943, “Rice protein-binding microarrays: a tool to detect cis-acting elements near promoter regions in rice”:
The other results are listed elsewhere or left out.

Target: T1, OsSMF1 (Oryza sativa, UniProt Q6ZLB0 1-436)
T1 sequence: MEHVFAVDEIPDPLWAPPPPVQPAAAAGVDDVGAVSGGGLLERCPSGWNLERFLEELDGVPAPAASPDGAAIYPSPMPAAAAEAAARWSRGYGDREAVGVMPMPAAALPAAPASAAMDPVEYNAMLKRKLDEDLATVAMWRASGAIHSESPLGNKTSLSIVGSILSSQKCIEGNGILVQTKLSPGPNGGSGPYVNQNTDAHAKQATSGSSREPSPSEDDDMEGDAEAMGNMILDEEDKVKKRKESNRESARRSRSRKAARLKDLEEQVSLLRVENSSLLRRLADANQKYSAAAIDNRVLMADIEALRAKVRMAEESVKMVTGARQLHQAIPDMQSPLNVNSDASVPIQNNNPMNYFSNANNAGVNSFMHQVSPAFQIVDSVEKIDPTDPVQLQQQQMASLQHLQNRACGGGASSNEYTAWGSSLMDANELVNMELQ
Experiment: protein-binding microarray (RPBM); PBS, 2% BSA, 51.3 ng/ul salmon testes DNA, 50 uM zinc acetate, 200 nM TF, 25 C, 1 h; high values mean tight binding
Conditions: protein: recombinant; tags: N-terminal polyhistidine and DsRed monomer fusion (pET32a); chain copies: 2; label: CyDye5-dUTP incorporated in the synthesized complementary strand; 3' TTTTT single-stranded linker to array surface; dsDNA, one strand shown
Method in brief: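 Polyhistidine-tagged DsRed fusions of transcription factors, joined at the N-terminus, were expressed in E. coli BL21-CodonPlus and isolated on Ni–NTA. They were incubated at 200 nM for 1 h at 25 °C on a custom Agilent array, double-stranded and BSA-blocked, in PBS with 2% BSA, salmon testes DNA and 50 µM zinc acetate. The binding signal is per-feature fluorescence intensity (arbitrary units) read on an Axon 4000B scanner after washing.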

Sequence | binding signal
ATCGAGTATTAGATTATCATATACAATCTCGTGCTGCATCCGGAGTCACCTAGTGCAG | 8560 fluorescence intensity (a.u.)
TCTACACGGCACGTCGACGTGTCGTGTCGCGGGCCGACCCCGGAGTCACCTAGTGCAG | 10600 fluorescence intensity (a.u.)
GGAGAGCCGACGATGACGGCGGCCACGGCGCGCGGCTGCTCGGAGTCACCTAGTGCAG | 3390 fluorescence intensity (a.u.)
CTTCTACGACGTCAGCCTCGTCGACGGCTACAACCTCCCCCGGAGTCACCTAGTGCAG | 3600 fluorescence intensity (a.u.)
TAATACTTGGTCCCACCTGTCATACACACATTACGTCATGCGGAGTCACCTAGTGCAG | 8120 fluorescence intensity (a.u.)
CTCATGATAGAACCCTCCAAAGTTTGTGTTAAACATGTCACGGAGTCACCTAGTGCAG | 3620 fluorescence intensity (a.u.)
TGGCGCCGAGGCCGTGATCCGCAGCGGAGGTGACGAGGCGCGGAGTCACCTAGTGCAG | 6370 fluorescence intensity (a.u.)
CTACAGCCTACAGCCTCTAATAGGCTATCCGTGACGAGATCGGAGTCACCTAGTGCAG | 3450 fluorescence intensity (a.u.)
CGCCTCTCCCCACGCGACTGGACACGTGTCGTGCGCGGAGCGGAGTCACCTAGTGCAG | 16000 fluorescence intensity (a.u.)
CCTCGTTCGCTCGCTTTGGCGTACGTGGCCTCTGCTACTTCGGAGTCACCTAGTGCAG | 6440 fluorescence intensity (a.u.)
AAACGAGTGATCTGCAAGTTTGGGGACCGGGATGACACAGCGGAGTCACCTAGTGCAG | 4960 fluorescence intensity (a.u.)
CATTTGCTATACAACTTTAGTACCGGTTCTCTCAATCTGGCGGAGTCACCTAGTGCAG | 4340 fluorescence intensity (a.u.)
GGAGGAGGTTGGATGACGTCATGGTGCGAGGTAGGTGGCCCGGAGTCACCTAGTGCAG | 22000 fluorescence intensity (a.u.)
GTCGACGTGTCCTACTCATCCACGCCACGTAACCAATTCCCGGAGTCACCTAGTGCAG | 18400 fluorescence intensity (a.u.)
TATCCGTGTGGCATGTCACTTTAGTGTCCATGTGGCATACCGGAGTCACCTAGTGCAG | 4060 fluorescence intensity (a.u.)
TTATGACATGTGTACCATCATGTGTCTATAACATATGAGTCGGAGTCACCTAGTGCAG | 3470 fluorescence intensity (a.u.)
GAGATAAAGAAGAGCGTGTTGTCACTAGCAAATATCCAACCGGAGTCACCTAGTGCAG | 3370 fluorescence intensity (a.u.)
AAAGCTTAAACCTGAGCGCTGGCATGACATGATCAGCCTGCGGAGTCACCTAGTGCAG | 3730 fluorescence intensity (a.u.)
CCCCGCCGGTCAGTGTCAGCTGTGGTCACGGCAGTCCCCGCGGAGTCACCTAGTGCAG | 3440 fluorescence intensity (a.u.)
CCACGGGTAAACGGGCAAATTGGCATAATTGCCATCCCTACGGAGTCACCTAGTGCAG | 3640 fluorescence intensity (a.u.)
ATGAGGCCCATGACTCTTCGCCCGGACTTTCTTCCCCTTGCGGAGTCACCTAGTGCAG | 3180 fluorescence intensity (a.u.)

As entered above.
binding signal with TGGCGCCGAGGCCGTGATCCGCAGCGGAGGTGACGAGGCGCGGAGTCACCTAGTGCAG is entered as 6370 fluorescence intensity (a.u.)
binding signal with CTACAGCCTACAGCCTCTAATAGGCTATCCGTGACGAGATCGGAGTCACCTAGTGCAG is entered as 3450 fluorescence intensity (a.u.)

Remaining list, next part.

Sequence | binding signal
CGCGCAGCGGGCGCTTTGGTTGCATCTGTCACGGAATCTACGGAGTCACCTAGTGCAG | 26400 fluorescence intensity (a.u.)
CTACCCGTGATGGCGTCATTATGATGTGTTTCAGTCTGTACGGAGTCACCTAGTGCAG | 12800 fluorescence intensity (a.u.)
GTCCGGGCGAGCGTGTGGCTCACGGCGACGTCGAGCGGGTCGGAGTCACCTAGTGCAG | 25500 fluorescence intensity (a.u.)
CATCTCATTCGAATTAATTCATATGACGTCATAAAGCCCCCGGAGTCACCTAGTGCAG | 14600 fluorescence intensity (a.u.)
TTCTGCCAGCAGTGCAGCAGGTCAGCCACTCAGCCCTCCTCGGAGTCACCTAGTGCAG | 6770 fluorescence intensity (a.u.)
TACTTTCGGACGAAGTGGATCAAGCTGCGTTCTACTCCCTCGGAGTCACCTAGTGCAG | 24400 fluorescence intensity (a.u.)
CGCGTGGACAACCGGCACGTACCGCGTCAGGGTCTTACGTCGGAGTCACCTAGTGCAG | 3530 fluorescence intensity (a.u.)
ATACTATTTATTTTACTAACATTAATATCAATGTACTATTCGGAGTCACCTAGTGCAG | 24700 fluorescence intensity (a.u.)
AGTCCCCGCGGCCCACCTAACGTCCCACGCGGCCTCGGTGCGGAGTCACCTAGTGCAG | 3390 fluorescence intensity (a.u.)
ACTACACCGTCGCAGCGCACCCACGTGACACGCAGCCACACGGAGTCACCTAGTGCAG | 4730 fluorescence intensity (a.u.)
TCACGCCTCTCTCTCTCTCTGCTCCCAAATCTGCGTGGGACGGAGTCACCTAGTGCAG | 3250 fluorescence intensity (a.u.)
TTAATTACAAATTGATTTGATCACGTAGATAATTACATCACGGAGTCACCTAGTGCAG | 37500 fluorescence intensity (a.u.)
GTAGGGGTCTCGAGGTGTTCAAGTGTGGATTACTCCATAGCGGAGTCACCTAGTGCAG | 24900 fluorescence intensity (a.u.)
TCGGTAGAGAGGTGAGGTTGTGTGATTGCACATATATTTTCGGAGTCACCTAGTGCAG | 3630 fluorescence intensity (a.u.)
ACAAATAAAATGCAACTAAATACAAGAATGTTTATATGAACGGAGTCACCTAGTGCAG | 17600 fluorescence intensity (a.u.)
TTCTCCTTAGCGACGACGAGGCGGCGGGCGGCCACTCTCCCGGAGTCACCTAGTGCAG | 3190 fluorescence intensity (a.u.)
AATCGAATTCAATCATGAAGAACGAGATAGCAACATTTAGCGGAGTCACCTAGTGCAG | 16400 fluorescence intensity (a.u.)
GAGCCCCGCACGGCTCGCCCACCGCCGGCGACGTCAGCCGCGGAGTCACCTAGTGCAG | 5310 fluorescence intensity (a.u.)
ATTAGATAGTACTAATACCTGATTAGACGCCGTCCCATTGCGGAGTCACCTAGTGCAG | 3640 fluorescence intensity (a.u.)
GTTACGACAAGTGCCACAAACCAGCAGAAGCAAAGGTAGACGGAGTCACCTAGTGCAG | 47900 fluorescence intensity (a.u.)
GGCATGACAGCGATCGGTGACGCCTTCTTCTCCATGGCCACGGAGTCACCTAGTGCAG | 5730 fluorescence intensity (a.u.)
